Data published in PMC9643518.
Results are given in words; binding and its absence hold for the method and conditions named. In cells and extracts the contact can be indirect. Some results given as binding are weak or reduced against the parent protein; the word gives no strength.

Protein sequences, listed by entry. Tags and fused reporters are not part of them. Residues count along the entry.
UniProt P09055, residues 21-798: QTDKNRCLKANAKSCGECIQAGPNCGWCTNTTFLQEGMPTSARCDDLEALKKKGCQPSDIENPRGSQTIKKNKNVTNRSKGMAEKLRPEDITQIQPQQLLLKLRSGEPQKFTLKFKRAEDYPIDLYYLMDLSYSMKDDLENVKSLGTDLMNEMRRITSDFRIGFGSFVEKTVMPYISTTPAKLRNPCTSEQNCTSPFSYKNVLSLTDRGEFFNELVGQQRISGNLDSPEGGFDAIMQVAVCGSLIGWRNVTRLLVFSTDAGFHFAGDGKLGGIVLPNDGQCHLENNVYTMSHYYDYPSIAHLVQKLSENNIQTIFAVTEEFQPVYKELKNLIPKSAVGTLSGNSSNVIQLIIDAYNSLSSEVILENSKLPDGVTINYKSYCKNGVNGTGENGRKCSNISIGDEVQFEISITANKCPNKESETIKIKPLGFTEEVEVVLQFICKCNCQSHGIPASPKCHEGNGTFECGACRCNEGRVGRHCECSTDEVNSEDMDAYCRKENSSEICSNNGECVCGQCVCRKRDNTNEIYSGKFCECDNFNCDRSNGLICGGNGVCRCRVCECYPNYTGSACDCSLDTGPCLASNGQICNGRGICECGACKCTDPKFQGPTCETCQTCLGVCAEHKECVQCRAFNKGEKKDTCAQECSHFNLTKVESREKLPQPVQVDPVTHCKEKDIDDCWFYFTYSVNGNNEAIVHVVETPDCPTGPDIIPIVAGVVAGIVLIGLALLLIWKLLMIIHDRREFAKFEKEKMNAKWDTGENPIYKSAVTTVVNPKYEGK

B1: transmembrane muscle-specific kinase (MuSK) (receptor, UniProt Q61006 22-868)
chain: EKLPKAPVITTPLETVDALVEEVATFMCAVESYPQPEISWTRNKILIKLFDTRYSIRENGQLLTILSVEDSDDGIYCCIANNGVGGAVESCGALQVKMKPKITRPPINVKIIEGLKAVLPCTTMGNPKPSVSWIKGDNALRENSRIAVLESGSLRIHNVQKEDAGQYRCVAKNSLGTAYSKLVKLEVEVFARILRAPESHNVTFGSFVTLRCTAIGIPVPTISWIENGNAVSSGSIQESVKDRVIDSRLQLFITKPGLYTCIATNKHGEKFSTAKAAATVSIAEWSKSQKDSQGYCAQYRGEVCDAVLAKDALVFFNTSYRDPEDAQELLIHTAWNELKAVSPLCRPAAEALLCNHLFQECSPGVVPTPMPICREYCLAVKELFCAKEWQAMEGKAHRGLYRSGMHLLPVPECSKLPSMHRDPTACTRLPYLDYKKENITTFPSITSSRPSADIPNLPASTSSFAVSPAYSMTVIISIVSSFALFALLTIATLYCCRRRKEWKNKKRESTAVTLTTLPSELLLDRLHPNPMYQRMPLLLNPKLLSLEYPRNNIEYVRDIGEGAFGRVFQARAPGLLPYEPFTMVAVKMLKEEASADMQADFQREAALMAEFDNPNIVKLLGVCAVGKPMCLLFEYMAYGDLNEFLRSMSPHTVCSLSHSDLSTRARVSSPGPPPLSCAEQLCIARQVAAGMAYLSERKFVHRDLATRNCLVGETMVVKIADFGLSRNIYSADYYKADGNDAIPIRWMPPESIFYNRYTTESDVWAYGVVLWEIFSYGLQPYYGMAHEEVIYYVRDGNILACPENCPLELYNLMRLCWSKLPADRPSFCSIHRILQRMCERAEGTVGV
B2: integrin α11 (receptor, UniProt P61622 23-1188)
chain: FNMDTRNPRVIAGPSAAFFGYTVQQHDISGKKWLVVGAPMETNGHQKTGDVYKCPVTQGNCTKLNLGRVTLSNVSERKDNMRLGLSLATNPKDNSFLACSPLWSHECGSSYYTTGMCSRANSNFRFSKTVAPALQRCQTYMDIVIVLDGSNSIYPWVEVQHFLINILKKFYIGPGQIQVGIVQYGEDAVHEFHLNDYRSVKDVVEAASHIEQRGGTETRTAFGIEFARSEAFQKGGRKGAKKVMIVITDGESHDSPDLEKVIRQSEKDNVTRYAVAVLGYYNRRGINPETFLNEIKYIASDPDDKHFFNVTDEAALKDIVDALGDRIFSLEGTNKNETSFGLEMSQTGFSSHVVEDGILLGAVGAYDWNGAVLKETSAGKVIPHRESYLKEFPEELKNHAAYLGYTVTSVVSSRQGRVYVAGAPRFNHTGKVILFSMHNNRSLTIHQALRGEQIGSYFGSEITSVDVNDDRVTDVLLVGAPMYFSEGRERGKVYVYNLRQNRFVYNGTLKDSHSYQNARFGSCIASVQDLNQDSYNDVVVGAPLEDSHRGAIYIFHGFQTNILKKPMQRITASELAPGLQHFGCSIHGQLDLNEDGLVDLAVGALGNAVVLWARPVVQINASLHFEPSKINIFHKDCKRNGRDATCLAAFLCFIPIFLAPHFQTATVGIRYNATMDERRYMPRAHLDEGGDQFTNRAVLLSSGQEHCQRINFHVLDTADYVKPVAFSVEYSLEDPDNGPMLDNGWPTTLRVSVPFWNGCNEDEHCVPDLVLDARSDLPTAMEYCQRVLGRPAQDCSSYTLSFDTTVFIIESTRRRVAVEATLENRGENAYSAVLNISQSENLQFASLIQKDDSDNSIECVNEERRLHKKVCNVSYPFFRAKAKVAFRLDFEFSKSVFLHHLQIHLGAGSDSHEQDSTADDNTALLRFHLKYEADVLFTRSSSLSHFEVKANSSLESYDGIGPPFNCVFKVQNLGFFPIHGVMMKITVPIATRGGNRLLMLRDFFTDQGNTSCNIWGNSTEYRSTPTEEDLSHAPQRNHSNSDVVSIICNLRLAPSQETSFYLVGNLWLTSLKALKYRSLKITVNAALQRQFHSPFIFREEDPSRQVTFEISKQEDWQVPIWIIVGSTLGGLLLLALLVLALWKLGFFKSAKRKREPGLGPIPKELK
B3: dynamin2 (Dyn2) (protein, UniProt P39054 1-870)
chain: MGNRGMEELIPLVNKLQDAFSSIGQSCHLDLPQIAVVGGQSAGKSSVLENFVGRDFLPRGSGIVTRRPLILQLIFSKTEYAEFLHCKSKKFTDFDEVRQEIEAETDRVTGTNKGISPVPINLRVYSPHVLNLTLIDLPGITKVPVGDQPPDIEYQIKDMILQFISRESSLILAVTPANMDLANSDALKLAKEVDPQGLRTIGVITKLDLMDEGTDARDVLENKLLPLRRGYIGVVNRSQKDIEGKKDIRAALAAERKFFLSHPAYRHMADRMGTPHLQKTLNQQLTNHIRESLPTLRSKLQSQLLSLEKEVEEYKNFRPDDPTRKTKALLQMVQQFGVDFEKRIEGSGDQVDTLELSGGARINRIFHERFPFELVKMEFDEKDLRREISYAIKNIHGVRTGLFTPDLAFEAIVKKQVVKLKEPCLKCVDLVIQELISTVRQCTSKLSSYPRLREETERIVTTYIREREGRTKDQILLLIDIEQSYINTNHEDFIGFANAQQRSTQLNKKRAIPNQGEILVIRRGWLTINNISLMKGGSKEYWFVLTAESLSWYKDEEEKEKKYMLPLDNLKIRDVEKGFMSNKHVFAIFNTEQRNVYKDLRQIELACDSQEDVDSWKASFLRAGVYPEKDQAENEDGAQENTFSMDPQLERQVETIRNLVDSYVAIINKSIRDLMPKTIMHLMINNTKAFIHHELLAYLYSSADQSSLMEESAEQAQRRDDMLRMYHALKEALNIIGDISTSTVSTPVPPPVDDTWLQNTSGHSPTPQRRPVSSVHPPGRPPAVRGPTPGPPLIPMPVGATSSFSAPPIPSRPGPQSVFANNDPFSAPPQIPSRPARIPPGIPPGVPSRRAPAAPSRPTIIRPAEPSLLD

Molecular target: integrin-beta-1 (mouse (endogenous in C2C12)) (UniProt P09055)
Test: proximity ligation; in situ PLA (DuolinkII, mouse-PLUS and rabbit-MINUS probes, detection reagent Orange) on fixed and permeabilized C2C12 myotubes, endogenous proteins; myotubes treated overnight with DMSO or flunarizine (4 μM); proximity < 40 nm

Binder	binding
B1	binds
B2	binds
B3	binds
